Source: PMC11423540, “Synthesis and biological evaluation of ortho-phenyl phenylhydroxamic acids containing phenothiazine with improved selectivity for class IIa histone deacetylases” (Journal of Enzyme Inhibition and Medicinal Chemistry, 2024)

System: SCC2095 cells
Test: Cell viability (MTT) assay, SCC2095
Format: cell-based
Conditions: Homo sapiens, 48 h, human oral cancer cells, read-out: IC50 of cytotoxicity SCC2095
Excerpt: Human breast cancer MDA-MB-231 cells and gastric cancer SCM-1 cells were purchased from the American Type Culture Collection (Manasas, VA, USA). SCC2095 human oral cancer cells were kindly provided by Professor Susan R. Mallery (The Ohio State University). Normal human lung fibroblasts (NHLFs; CC-2512) were purchased from the Lonza (Walkersville, MD, USA). SCM-1 cells were maintained in RPMI-1640 medium (Invitrogen, Carlsbad, CA, USA); MDA-MB-231 and SCC2095 cells were maintained in DMEM/F12 (Invitrogen); and NHLFs were maintained in FGM™-2 medium (Lonza) with 2% serum, supplemented with 10% heat-inactivated foetal bovine serum (FBS; Gibco, Grand Island, NY, USA). All cells were cultured at 37 °C in a humidified incubator containing 5% CO2 and 95% relative humidity.
To assess cell viability, cells were seeded in three replicates into 96-well plates at a density of 5×10^3/well for 24 h following incubation with compounds at the indicated concentrations. Then, cell viability was assessed with 3–(4,5-dimethylthiazol-2-yl)-2,5-diphenyltetrazolium bromide (MTT) solution (0.5 mg/mL) for 4h as described previously. After removing the medium, 200 µL of DMSO was added, and then the absorbance was measured at 570 nm using a plate reader (BMG LABTECH, Germany).

Q: For `O=C(CCCCCCC(=O)Nc1ccccc1)NO` [Vorinostat, reference compound], which IC50 is on record?
A: 2400 nM
